# Literature values in US6645917B2, “Composition for hybrid seed production, process for the preparation of such composition and use thereof” (Council of Scientific and Industrial Research, priority 2002, dated 2003).
# For at least one compound, name, drawing or mass did not settle the structure.
# Tested on: wheat
# Conditions: cited from earlier work
structure (smiles),measurement,value
C[C@]12CC[C@@H]3c4ccc(O)cc4CC[C@H]3[C@@H]1CCC2=O [Estrone],Sterility (optimum treatment) Male,Poor
